# According to patent US9943501B2 (KOJUN JAPAN CO., LTD., priority 2014, dated 2018):
# For at least one compound, name, drawing or mass did not settle the structure.
# What was measured:
# [1] = tested on: C57BL/6J mice fed with a high-fat diet; test: Anti-obesity effect (body weight) on dietary-induced obesity mouse model; assay type: in vivo; conditions: 12 weeks
# Procedure: The 5H4PB obtained in Example 6 administered to mice fed with a high-fat diet to verify its anti-obesity effect. Five-week-old male C57BL/6J mice (supplied by Charles River Laboratories Japan, Inc.) were individually raised (one per cage) under environmental conditions involving a temperature of 20 to 26° C., a humidity of 35 to 75%, and 12-hour illumination (7:00 to 19:00). After acclimatization for approximately 1 week, the mice were divided into 6 groups each involving 6 to 8 individuals. Of the test groups, a normal group was fed with a normal solid diet CRF1 (a product of Oriental Yeast Co., Ltd., 3.57 kcal/g) during the test period, and a control group and drug administration groups were fed with a high-calorie solid diet D12492 (a product of Research Diets, Inc., 5.24 kcal/g) during the test period. The diets were freely taken, and water was also freely taken from water supply bottles.
# The test substance 5H4PB (produced in Example 6) or a positive control substance rosiglitzaone (a product of Wako Pure Chemical Industries, Ltd.) was administered once a day for 12 weeks at the predetermined dose shown in Table 2 to the mice in each drug administration group. […]
# From the start of the test (administration), the body weight of each individual was measured at a frequency of once a week, and the average body weight of each test group was determined. […]
# [2] = tested on: C57BL/6J mice fed with a high-fat diet; test: Amounts of subcutaneous fat and visceral fat in dietary-induced obesity mouse model; assay type: in vivo; conditions: low dose (0.037 μg/kg/day); 85 days
# Procedure: For each individual of the male C57BL/6J mice after lapse of 85 days into the test of Example 9, blood was collected under anesthesia with 2% isoflurane, and the mice were then euthanized. Inguinal subcutaneous fat, epididymal fat, perirenal fat, and mesenteric fat were collected from each individual. The weight of each fat was measured, and the average fat weights of each test group were determined.
# The ordinate of the drawing depicts the measured weight (g) of each fat tissue. […] Specifically, increase in the amount of each fat tissue was inhibited by approximately 35% for the inguinal subcutaneous fat, approximately 18% for the epididymal fat, approximately 13% for the perirenal fat, and approximately 16% for the mesenteric fat in the test group administered 0.037 μg/kg/day of 5H4PB, while increase in the amount of each fat tissue was inhibited by approximately 34% for the inguinal subcutaneous fat, approximately 15% for the epididymal fat, approximately 13% for the perirenal fat, and approximately 40% for the mesenteric fat in the test group administered 0.01 […] of 5H4PB, with respect to the amount of each fat tissue increased in the control group due to the high-calorie diet (the value determined by subtracting the fat tissue weight of the normal group from the fat tissue weight of the control group). […]
smiles,measurement,setting,value
"CN(CCOc1ccc(CC2SC(=O)NC2=O)cc1)c1ccccn1 (stereo not drawn) [rosiglitazone, reference compound]",anti-obesity effect (body weight vs control group),[1]; 0.037 μg/kg/day,no anti-obesity effect was observed
same,rate of body weight gain inhibition,[1]; 10 mg/kg/day,lower rate of body weight gain inhibition even as compared with the test group given 0.037 μg/kg/day of 5H4PB
same,visceral fat accumulation inhibitory effect,[2],no visceral fat accumulation inhibitory effect was observed
